Results as given in patent US11167006B2 (Shanghai Tianci Life Science Development Co., Ltd., priority 2016, dated 2021).
Some results were stated once for a whole list of compounds, not compound by compound. Square brackets hold non-standard residues; d marks the D form. Peptide text beside a SMILES is read from it. NMeY = CN[C@@H](Cc1ccc(O)cc1)C(=O)O; NMeF = CN[C@@H](Cc1ccccc1)C(=O)O

Chains of the proteins cited; added tags and fusions are not shown. Lines headed by an entry give the natural chain unless they say otherwise; changes in a name come on top.
UniProt P35372, whole entry: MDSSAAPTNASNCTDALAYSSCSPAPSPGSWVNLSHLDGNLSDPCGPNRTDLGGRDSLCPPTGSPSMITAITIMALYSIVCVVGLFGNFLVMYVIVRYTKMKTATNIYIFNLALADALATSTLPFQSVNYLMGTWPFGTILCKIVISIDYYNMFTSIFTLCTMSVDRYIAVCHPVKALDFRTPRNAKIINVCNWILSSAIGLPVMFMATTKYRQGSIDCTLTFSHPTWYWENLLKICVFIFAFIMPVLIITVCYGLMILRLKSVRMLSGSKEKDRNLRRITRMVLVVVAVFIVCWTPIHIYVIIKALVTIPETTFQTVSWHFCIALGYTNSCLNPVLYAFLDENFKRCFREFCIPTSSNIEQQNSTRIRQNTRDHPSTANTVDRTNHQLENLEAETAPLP
UniProt P41145: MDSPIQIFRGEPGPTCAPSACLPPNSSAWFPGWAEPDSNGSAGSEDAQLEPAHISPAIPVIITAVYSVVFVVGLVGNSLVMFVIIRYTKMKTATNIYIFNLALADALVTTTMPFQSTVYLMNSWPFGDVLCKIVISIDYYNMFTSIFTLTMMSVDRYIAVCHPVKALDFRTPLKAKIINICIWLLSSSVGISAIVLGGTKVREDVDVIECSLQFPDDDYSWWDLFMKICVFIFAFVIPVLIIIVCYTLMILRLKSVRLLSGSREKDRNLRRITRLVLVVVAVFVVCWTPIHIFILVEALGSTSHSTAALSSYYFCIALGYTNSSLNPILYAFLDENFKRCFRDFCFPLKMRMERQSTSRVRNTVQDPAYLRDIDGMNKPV
UniProt P41143, whole entry: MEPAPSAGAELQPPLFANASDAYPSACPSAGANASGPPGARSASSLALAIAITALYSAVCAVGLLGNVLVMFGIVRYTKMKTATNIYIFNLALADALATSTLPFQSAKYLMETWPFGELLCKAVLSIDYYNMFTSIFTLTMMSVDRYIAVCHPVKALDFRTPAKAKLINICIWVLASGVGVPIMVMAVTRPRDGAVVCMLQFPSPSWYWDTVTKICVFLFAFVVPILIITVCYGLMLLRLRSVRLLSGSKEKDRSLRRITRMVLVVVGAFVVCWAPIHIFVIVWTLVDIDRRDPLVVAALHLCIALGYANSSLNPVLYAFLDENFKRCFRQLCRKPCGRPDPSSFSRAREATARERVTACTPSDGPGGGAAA
UniProt Q9GZQ6: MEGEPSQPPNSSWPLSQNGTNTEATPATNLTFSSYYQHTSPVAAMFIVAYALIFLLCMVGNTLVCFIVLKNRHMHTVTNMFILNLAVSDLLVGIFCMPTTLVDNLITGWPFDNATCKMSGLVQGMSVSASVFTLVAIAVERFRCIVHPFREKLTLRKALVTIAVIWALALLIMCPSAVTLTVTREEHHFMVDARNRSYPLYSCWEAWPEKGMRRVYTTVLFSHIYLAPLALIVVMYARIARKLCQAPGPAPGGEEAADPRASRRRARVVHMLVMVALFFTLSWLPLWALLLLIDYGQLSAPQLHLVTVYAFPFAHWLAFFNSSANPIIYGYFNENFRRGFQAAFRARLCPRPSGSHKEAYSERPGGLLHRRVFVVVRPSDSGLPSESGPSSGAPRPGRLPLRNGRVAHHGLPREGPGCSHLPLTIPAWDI
UniProt Q9Y5X5: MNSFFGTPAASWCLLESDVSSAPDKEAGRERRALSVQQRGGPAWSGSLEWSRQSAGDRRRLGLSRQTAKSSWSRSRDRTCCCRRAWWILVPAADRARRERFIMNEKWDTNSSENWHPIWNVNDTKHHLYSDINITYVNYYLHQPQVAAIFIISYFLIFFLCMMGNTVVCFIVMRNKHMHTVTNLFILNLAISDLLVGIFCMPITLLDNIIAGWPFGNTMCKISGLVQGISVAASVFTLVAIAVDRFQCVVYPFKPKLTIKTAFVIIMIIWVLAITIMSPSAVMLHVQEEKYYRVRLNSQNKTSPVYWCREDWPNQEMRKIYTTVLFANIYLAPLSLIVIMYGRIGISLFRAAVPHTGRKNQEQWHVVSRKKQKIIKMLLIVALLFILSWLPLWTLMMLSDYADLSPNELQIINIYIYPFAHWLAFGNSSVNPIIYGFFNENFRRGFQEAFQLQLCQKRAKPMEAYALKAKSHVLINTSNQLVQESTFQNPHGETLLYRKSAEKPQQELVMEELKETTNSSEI

Columns and labels:
Mu-opioid receptor = biological target: T1, Mu-opioid receptor (Homo sapiens, UniProt P35372); experiment: cAMP function test, HEK293 cells stably expressing Mu-opioid receptor; type: cell-based; details: forskolin-induced cAMP accumulation
T1 construct: expressed in transfected cells; host or cells: HEK293

Kappa-opioid receptor = biological target: T2, Kappa-opioid receptor (Homo sapiens, UniProt P41145); experiment: cAMP function test, HEK293 cells stably expressing Kappa-opioid receptor; type: cell-based; details: forskolin-induced cAMP accumulation
T2 construct: expressed in transfected cells; host or cells: HEK293

Delta-opioid receptor = biological target: T3, Delta-opioid receptor (Homo sapiens, UniProt P41143); experiment: cAMP function test, HEK293 cells stably expressing Delta-opioid receptor; type: cell-based; details: forskolin-induced cAMP accumulation
T3 construct: expressed in transfected cells; host or cells: HEK293

NPFF1 receptor = biological target: T4, NPFF1 receptor (Homo sapiens, UniProt Q9GZQ6); experiment: cAMP function test, HEK293 cells stably expressing NPFF1 receptor; type: cell-based; details: forskolin-induced cAMP accumulation
T4 construct: expressed in transfected cells; host or cells: HEK293

NPFF2 receptor = biological target: T5, NPFF2 receptor (Homo sapiens, UniProt Q9Y5X5); experiment: cAMP function test, HEK293 cells stably expressing NPFF2 receptor; type: cell-based; details: forskolin-induced cAMP accumulation
T5 construct: expressed in transfected cells; host or cells: HEK293

[1] = test system: male mice of Kunming strain; experiment: Analgesic tolerance test (photothermal tail flick); type: in vivo, mouse; details: six consecutive days lateral ventricle injection; compounds at 3 times ED50, morphine 4 nmol
Protocol: The mice were injected with the drug in the lateral ventricle of the mice for six consecutive days or in the subcutaneous of the mice for eight consecutive days, and their analgesic tolerance were detected by photothermal tail flick method, and the pharmacological activity of the compounds of the present invention in analgesic tolerance was further explored.
In male mice of Kunming strain, the drug was injected continuously in the lateral ventricle for six days, once a day, and the effect of continuous injection of drugs on the pain sensation was detected by a photothermal tail flick instrument. The ambient temperature is controlled at 22±1° C., and the experimental animals are free to eat and drink. The test drug was injected into the lateral ventricle of the mouse for 6 consecutive days, 4 μl per injection. The basic tail flick incubation period (3-5 seconds) was measured before the first day of drug injection, and those mice that were too sensitive or dull were discarded. The tail flick incubation period of 5, 10, 15, 20, 30 min after administration on the first and sixth days was recorded in the experiment. To prevent scald on the tail of the mouse, the maximum tail flick incubation period was set as 10 seconds,
In addition, we further studied the tolerance of subcutaneous administration of compound 9 and morphine in the photothermal tail flick test. The ambient temperature is controlled at 22±1° C., and the experimental animals are free to eat and drink. First, the basic tail flick incubation period (3-5 seconds) of the mice was measured before administration, and then compound 9 or morphine was administered subcutaneously for eight consecutive days. The tail flick incubation period of 10, 15 and 20 minutes after daily administration were recorded. To prevent scald on the tail of the mouse, the maximum tail flick incubation period was set as 10 seconds.
The experimental data is expressed by MPE (maximum possible effect), MPE (%)=100×[(pain threshold after administration−basal pain threshold)/(10 seconds−basal pain threshold)]. The analgesic tolerance of the drug was compared using the MPE value at the time of maximum analgesic effect of the drug. MPE data was expressed as mean±standard error (Means±S.E.M.). The difference in the analgesic effect of continuous administration in the lateral ventricle of the mice for six days was statistically analyzed by the paired T test, and the difference in the analgesic effect of subcutaneous continuous administration for eight days was analyzed by One-way analysis of variance (one-way ANOVA's Tukey HSD test) for statistics, and ***P<0.001 indicates a significant difference from the analgesic effect of the drug injected on the first day.

SMILES | agonistic activity on Mu-opioid receptor (Mu-opioid receptor) | agonistic activity on Kappa-opioid receptor (Kappa-opioid receptor) | agonistic activity on Delta-opioid receptor (Delta-opioid receptor) | agonistic activity on NPFF1 receptor (NPFF1 receptor) | agonistic activity on NPFF2 receptor (NPFF2 receptor) | analgesic tolerance [1]
CN[C@@H](Cc1ccc(O)cc1)C(=O)N[C@H](C)C(=O)NCC(=O)N[C@@H](Cc1ccccc1)C(=O)N[C@@H](CCC(N)=O)C(=O)N1CCC[C@H]1C(=O)N[C@@H](CCC(N)=O)C(=O)N[C@@H](CCCNC(=N)N)C(=O)N[C@@H](Cc1ccccc1)C(N)=O [Compound 1] (H-[NMeY][dA]GFQPQRF-NH2) | able to dose-dependently inhibit the accumulation of cAMP caused by forskolin | have agonistic activity on Kappa opioid receptors | could inhibit the accumulation of cAMP induced by forskolin in a dose-dependent manner | able to dose-dependently inhibit forskolin-induced cAMP accumulation | able to dose-dependently inhibit forskolin-induced cAMP accumulation | did not produce analgesic tolerance
C[C@@H](NC(=O)[C@@H](N)Cc1ccc(O)cc1)C(=O)NCC(=O)N(C)[C@@H](Cc1ccccc1)C(=O)N[C@@H](CCC(N)=O)C(=O)N1CCC[C@H]1C(=O)N[C@@H](CCC(N)=O)C(=O)N[C@@H](CCCNC(=N)N)C(=O)N[C@@H](Cc1ccccc1)C(N)=O [Compound 2, Tyr-D-Ala-Gly-NMe-Phe-Gln-Pro-Gln-Arg-Phe-NH2] (H-Y[dA]G[NMeF]QPQRF-NH2) | able to dose-dependently inhibit the accumulation of cAMP caused by forskolin | have agonistic activity on Kappa opioid receptors | could inhibit the accumulation of cAMP induced by forskolin in a dose-dependent manner | able to dose-dependently inhibit forskolin-induced cAMP accumulation | able to dose-dependently inhibit forskolin-induced cAMP accumulation | did not produce analgesic tolerance
C[C@@H](NC(=O)[C@@H](N)Cc1ccc(O)cc1)C(=O)NCC(=O)N[C@@H](Cc1ccccc1)C(=O)NCC(=O)N1CCC[C@H]1C(=O)N[C@@H](CCC(N)=O)C(=O)N[C@@H](CCCNC(=N)N)C(=O)N[C@@H](Cc1ccccc1)C(N)=O [Compound 3] (H-Y[dA]GFGPQRF-NH2) | able to dose-dependently inhibit the accumulation of cAMP caused by forskolin | have agonistic activity on Kappa opioid receptors | could inhibit the accumulation of cAMP induced by forskolin in a dose-dependent manner | able to dose-dependently inhibit forskolin-induced cAMP accumulation | able to dose-dependently inhibit forskolin-induced cAMP accumulation | did not produce analgesic tolerance
CC(C)C[C@H](NC(=O)[C@H](Cc1ccccc1)NC(=O)CNC(=O)[C@@H](C)NC(=O)[C@@H](N)Cc1ccc(O)cc1)C(=O)N1CCC[C@H]1C(=O)N[C@@H](CCC(N)=O)C(=O)N[C@@H](CCCNC(=N)N)C(=O)N[C@@H](Cc1ccccc1)C(N)=O [Compound 4] (H-Y[dA]GFLPQRF-NH2) | able to dose-dependently inhibit the accumulation of cAMP caused by forskolin | have agonistic activity on Kappa opioid receptors | could inhibit the accumulation of cAMP induced by forskolin in a dose-dependent manner | able to dose-dependently inhibit forskolin-induced cAMP accumulation | able to dose-dependently inhibit forskolin-induced cAMP accumulation | did not produce analgesic tolerance
CSCC[C@H](NC(=O)[C@H](Cc1ccccc1)NC(=O)CNC(=O)[C@@H](C)NC(=O)[C@@H](N)Cc1ccc(O)cc1)C(=O)N1CCC[C@H]1C(=O)N[C@@H](CCC(N)=O)C(=O)N[C@@H](CCCNC(=N)N)C(=O)N[C@@H](Cc1ccccc1)C(N)=O [Compound 5] (H-Y[dA]GFMPQRF-NH2) | able to dose-dependently inhibit the accumulation of cAMP caused by forskolin | have agonistic activity on Kappa opioid receptors | could inhibit the accumulation of cAMP induced by forskolin in a dose-dependent manner | able to dose-dependently inhibit forskolin-induced cAMP accumulation | able to dose-dependently inhibit forskolin-induced cAMP accumulation | did not produce analgesic tolerance
CSCC[C@@H](NC(=O)[C@H](Cc1ccccc1)NC(=O)CNC(=O)[C@@H](C)NC(=O)[C@@H](N)Cc1ccc(O)cc1)C(=O)N1CCC[C@H]1C(=O)N[C@@H](CCC(N)=O)C(=O)N[C@@H](CCCNC(=N)N)C(=O)N[C@@H](Cc1ccccc1)C(N)=O [Compound 6, Tyr-D-Ala-Gly-Phe-D-Met-Pro-Gln-Arg-Phe-NH2] (H-Y[dA]GF[dM]PQRF-NH2) | able to dose-dependently inhibit the accumulation of cAMP caused by forskolin | have agonistic activity on Kappa opioid receptors | could inhibit the accumulation of cAMP induced by forskolin in a dose-dependent manner | weak agonistic effects | able to dose-dependently inhibit forskolin-induced cAMP accumulation | did not produce analgesic tolerance
CC(C)C[C@@H](NC(=O)[C@H](Cc1ccccc1)NC(=O)CNC(=O)[C@@H](C)NC(=O)[C@@H](N)Cc1ccc(O)cc1)C(=O)N1CCC[C@H]1C(=O)N[C@@H](CCC(N)=O)C(=O)N[C@@H](CCCNC(=N)N)C(=O)N[C@@H](Cc1ccccc1)C(N)=O [Compound 7, Tyr-D-Ala-Gly-Phe-D-Leu-Pro-Gln-Arg-Phe-NH2] (H-Y[dA]GF[dL]PQRF-NH2) | able to dose-dependently inhibit the accumulation of cAMP caused by forskolin |  | could inhibit the accumulation of cAMP induced by forskolin in a dose-dependent manner | weak agonistic effects | able to dose-dependently inhibit forskolin-induced cAMP accumulation | did not produce analgesic tolerance
C[C@@H](NC(=O)[C@@H](N)Cc1ccc(O)cc1)C(=O)NCC(=O)N[C@@H](Cc1ccccc1)C(=O)N[C@H](C)C(=O)N1CCC[C@H]1C(=O)N[C@@H](CCC(N)=O)C(=O)N[C@@H](CCCNC(=N)N)C(=O)N[C@@H](Cc1ccccc1)C(N)=O [Compound 8, Tyr-D-Ala-Gly-Phe-D-Ala-Pro-Gln-Arg-Phe-NH2] (H-Y[dA]GF[dA]PQRF-NH2) | able to dose-dependently inhibit the accumulation of cAMP caused by forskolin |  | could inhibit the accumulation of cAMP induced by forskolin in a dose-dependent manner | weak agonistic effects | able to dose-dependently inhibit forskolin-induced cAMP accumulation | did not produce analgesic tolerance
C[C@@H](NC(=O)[C@@H](N)Cc1ccc(O)cc1)C(=O)NCC(=O)N(C)[C@@H](Cc1ccccc1)C(=O)NCC(=O)N1CCC[C@H]1C(=O)N[C@@H](CCC(N)=O)C(=O)N[C@@H](CCCNC(=N)N)C(=O)N[C@@H](Cc1ccccc1)C(N)=O [Compound 9, Tyr-D-Ala-Gly-NMe-Phe-Gly-Pro-Gln-Arg-Phe-NH2] (H-Y[dA]G[NMeF]GPQRF-NH2) | able to dose-dependently inhibit the accumulation of cAMP caused by forskolin | have agonistic activity on Kappa opioid receptors | could inhibit the accumulation of cAMP induced by forskolin in a dose-dependent manner | able to dose-dependently inhibit forskolin-induced cAMP accumulation | able to dose-dependently inhibit forskolin-induced cAMP accumulation | did not produce analgesic tolerance
